Experimental data: article PMC10783502
These are yes or no findings as the source states them, for the method shown. In cells and extracts the contact can be indirect. These calls come from enrichment with a bait or labelling near it, and not all partners need be listed.

The chains behind the UniProt entries cited, without tags or fusion partners. Where a name states a change or a piece, a line headed by the entry shows the natural chain unless it says otherwise.
UniProt Q9ZU66: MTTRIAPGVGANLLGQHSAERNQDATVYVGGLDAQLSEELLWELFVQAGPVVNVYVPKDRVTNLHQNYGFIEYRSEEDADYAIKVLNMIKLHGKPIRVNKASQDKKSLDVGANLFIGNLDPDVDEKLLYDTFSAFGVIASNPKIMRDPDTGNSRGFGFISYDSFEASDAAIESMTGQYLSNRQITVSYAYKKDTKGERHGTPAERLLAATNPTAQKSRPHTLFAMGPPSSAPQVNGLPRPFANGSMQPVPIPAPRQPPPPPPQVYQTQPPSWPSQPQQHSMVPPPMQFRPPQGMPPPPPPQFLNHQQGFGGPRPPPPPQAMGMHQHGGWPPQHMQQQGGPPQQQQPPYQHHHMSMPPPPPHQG

Biological target: MYC-JANUS (Arabidopsis) (UniProt Q9ZU66)
Assay: affinity purification with mass spectrometry; MYC-JANUS immunoprecipitated with anti-MYC antibodies from transgenic plants harboring p35S::MYC-JANUS; same IP from Col-0 as negative control

B1: CDC5 (protein, UniProt P92948 1-844)
chain: MRIMIKGGVWKNTEDEILKAAVMKYGKNQWARISSLLVRKSAKQCKARWYEWLDPSIKKTEWTREEDEKLLHLAKLLPTQWRTIAPIVGRTPSQCLERYEKLLDAACTKDENYDAADDPRKLRPGEIDPNPEAKPARPDPVDMDEDEKEMLSEARARLANTRGKKAKRKAREKQLEEARRLASLQKRRELKAAGIDGRHRKRKRKGIDYNAEIPFEKRAPAGFYDTADEDRPADQVKFPTTIEELEGKRRADVEAHLRKQDVARNKIAQRQDAPAAILQANKLNDPEVVRKRSKLMLPPPQISDHELEEIAKMGYASDLLAENEELTEGSAATRALLANYSQTPRQGMTPMRTPQRTPAGKGDAIMMEAENLARLRDSQTPLLGGENPELHPSDFTGVTPRKKEIQTPNPMLTPSMTPGGAGLTPRIGLTPSRDGSSFSMTPKGTPFRDELHINEDMDMHESAKLERQRREEARRSLRSGLTGLPQPKNEYQIVAQPPPEESEEPEEKIEEDMSDRIAREKAEEEARQQALLKKRSKVLQRDLPRPPAASLAVIRNSLLSADGDKSSVVPPTPIEVADKMVREELLQLLEHDNAKYPLDDKAEKKKGAKNRTNRSASQVLAIDDFDENELQEADKMIKEEGKFLCVSMGHENKTLDDFVEAHNTCVNDLMYFPTRSAYELSSVAGNADKVAAFQEEMENVRKKMEEDEKKAEHMKAKYKTYTKGHERRAETVWTQIEATLKQAEIGGTEVECFKALKRQEEMAASFRKKNLQEEVIKQKETESKLQTRYGNMLAMVEKAEEIMVGFRAQALKKQEDVEDSHKLKEAKLATGEEEDIAIAMEASA
binding: binds

B2: PRL1 (protein, UniProt Q42384 1-486)
chain: MPAPTTEIEPIEAQSLKKLSLKSLKRSLELFSPVHGQFPPPDPEAKQIRLSHKMKVAFGGVEPVVSQPPRQPDRINEQPGPSNALSLAAPEGSKSTQKGATESAIVVGPTLLRPILPKGLNYTGSSGKSTTIIPANVSSYQRNLSTAALMERIPSRWPRPEWHAPWKNYRVIQGHLGWVRSVAFDPSNEWFCTGSADRTIKIWDVATGVLKLTLTGHIEQVRGLAVSNRHTYMFSAGDDKQVKCWDLEQNKVIRSYHGHLSGVYCLALHPTLDVLLTGGRDSVCRVWDIRTKMQIFALSGHDNTVCSVFTRPTDPQVVTGSHDTTIKFWDLRYGKTMSTLTHHKKSVRAMTLHPKENAFASASADNTKKFSLPKGEFCHNMLSQQKTIINAMAVNEDGVMVTGGDNGSIWFWDWKSGHSFQQSETIVQPGSLESEAGIYAACYDNTGSRLVTCEADKTIKMWKEDENATPETHPINFKPPKEIRRF
binding: binds

B3: SERRATE (protein, UniProt Q9ZVD0 1-720)
chain: MADVNLPPSDSVDNRLPEKSTSSSPPPPPPSSSLPQQEQEQDQQQLPLRRERDSRERRDERDIERPPPNRRERDRSPLPPPRRDYKRRPSLSPPPPYRDRRHSPPQRRSPPQKRYRRDDNGYDGRRGSPRGGYGPPDRRFGYDHGGGYDREMGGRPGYGDERPHGRFMGRYQDWEGGRGGYGDASNSGNPQRDGLMSYKQFIQELEDDILPSEAERRYQEYKSEYITTQKRAFFNTHKEEDWLKNKYHPTNLLSVIERRNDLAQKVAKDFLLDLQSGTLDLGPAVTALNKSGRTSEPNSEDEAAGVGKRKRHGMGGAKENELLSAAPKAPSFTSDPKRILTDVEQTQALVRKLDSEKKIEENVLQGSETEKSGREKLHSGSTGPVVIIRGLTSVKGLEGVELLDTLVTYLWRVHGLDYYGKVETNEAKGLRHVRAEGKVSDAKGDENESKFDSHWQERLKGQDPLEVMAAKEKIDAAATEALDPHVRKIRDEKYGWKYGCGAKGCTKLFHAAEFVYKHLKLKHTELVTELTTKVREELYFQNYMNDPNAPGGQPATQQSGPRDRPIRRKPSMENRLRDDRGGRRERDGRANGNDRNDRSEDQQRGDNDGGNPGEVGYDAFGGQGGVHVPPFLSDINPPPMLMPVPGAGPLGPFVPAPPEVAMQMFRDPSGPNPPFEGSGRGGPAPFLLSPAFRQDPRRLRSYQDLDAPEEEVTVIDYRSL
binding: binds
